Experiment: Sterility testing per USP <71> of sterilized bendamustine HCl

Measured: Sterility USP <71> result

Cl.Cn1c(CCCC(=O)O)nc2cc(N(CCCl)CCCl)ccc21 [bendamustine HCl, Bendamustine hydrochloride]
No growth observed: after E-beam sterilization, about 30 kGy | after dry heat sterilization (140° C. for 180 minutes or 150° C. for 150 minutes) | after gamma irradiation, 29.3 kGy to about 32.3 kGy
